In the supplement of paper PMC8728848:
The other results are listed elsewhere or left out.

Key:
Test in all cases: glycan array binding signal (z-score within array); higher = stronger binding
Conditions in all cases: glycan notation: IUPAC condensed, linker removed
GlcA(b1-3)GlcNAc = target: GlcA(b1-3)GlcNAc
Summary of the method: (§1)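 From the Consortium for Functional Glycomics database, 3228 arrays were curated, keeping only those whose protein sequence was available. Binding is given as a within-array Z-score averaged across arrays sharing a protein sequence and across linkers. Negative Z-scores can be read as non-binding.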

GlcA(b1-6)Gal = target: GlcA(b1-6)Gal
Summary of the method: as §1

[1] = target: GlcNAc(a1-3)Gal(b1-4)GlcNAc
Summary of the method: as §1

[2] = target: GlcNAc(a1-6)Gal(b1-4)GlcNAc
Summary of the method: as §1

[3] = target: GlcNAc(b1-2)Gal(b1-3)GalNAc
Summary of the method: as §1

[4] = target: GlcNAc(b1-2)Man(a1-3)[GlcNAc(b1-2)Man(a1-6)]Man(b1-4)GlcNAc(b1-4)GlcNAc
Summary of the method: as §1

GlcNAc(b1-3)Gal = target: GlcNAc(b1-3)Gal
Summary of the method: as §1

[5] = target: GlcNAc(b1-3)Gal(b1-3)GalNAc
Summary of the method: as §1

GlcNAc(b1-3)Gal(b1-4)Glc = target: GlcNAc(b1-3)Gal(b1-4)Glc
Summary of the method: as §1

[6] = target: GlcNAc(b1-3)Gal(b1-4)GlcNAc
Summary of the method: as §1

[7] = target: GlcNAc(b1-3)Gal(b1-4)GlcNAc(b1-3)Gal(b1-4)GlcNAc
Summary of the method: as §1

GlcNAc(b1-3)GalNAc = target: GlcNAc(b1-3)GalNAc
Summary of the method: as §1

GlcNAc(b1-3)Man = target: GlcNAc(b1-3)Man
Summary of the method: as §1

[8] = target: GlcNAc(b1-3)[GlcNAc(b1-4)][GlcNAc(b1-6)]GlcNAc
Summary of the method: as §1

[9] = target: GlcNAc(b1-3)[GlcNAc(b1-6)]Gal(b1-4)GlcNAc
Summary of the method: as §1

[10] = target: GlcNAc(b1-3)[GlcNAc(b1-6)]GalNAc
Summary of the method: as §1

[11] = target: GlcNAc(b1-4)Gal(b1-4)GlcNAc
Summary of the method: as §1

GlcNAc(b1-4)GlcNAc = target: GlcNAc(b1-4)GlcNAc
Summary of the method: as §1

[12] = target: GlcNAc(b1-4)GlcNAc(b1-4)GlcNAc
Summary of the method: as §1

[13] = target: GlcNAc(b1-4)GlcNAc(b1-4)GlcNAc(b1-4)GlcNAc(b1-4)GlcNAc
Summary of the method: as §1

[14] = target: GlcNAc(b1-4)GlcNAc(b1-4)GlcNAc(b1-4)GlcNAc(b1-4)GlcNAc(b1-4)GlcNAc
Summary of the method: as §1

[15] = target: GlcNAc(b1-4)[GlcNAc(b1-6)]GalNAc
Summary of the method: as §1

[16] = target: GlcNAc(b1-6)Gal(b1-4)GlcNAc
Summary of the method: as §1

GlcNAc(b1-6)GalNAc = target: GlcNAc(b1-6)GalNAc
Summary of the method: as §1

GlcNAc3Prop(b1-4)GlcNAc = target: GlcNAc3Prop(b1-4)GlcNAc
Summary of the method: as §1

Kdn(a2-3)Gal(b1-3)GlcNAc = target: Kdn(a2-3)Gal(b1-3)GlcNAc
Summary of the method: as §1

Kdn(a2-3)Gal(b1-4)GlcNAc = target: Kdn(a2-3)Gal(b1-4)GlcNAc
Summary of the method: as §1

[17] = target: Man(a1-2)Man(a1-2)Man(a1-3)Man
Summary of the method: as §1

[18] = target: Man(a1-2)Man(a1-2)Man(a1-6)[Man(a1-3)]Man
Summary of the method: as §1

Man(a1-2)Man(a1-3)Man = target: Man(a1-2)Man(a1-3)Man
Summary of the method: as §1

[19] = target: Man(a1-2)Man(a1-3)[Man(a1-2)Man(a1-6)]Man
Summary of the method: as §1

[20] = target: Man(a1-2)Man(a1-3)[Man(a1-2)Man(a1-6)]Man(a1-6)[Man(a1-2)Man(a1-2)Man(a1-3)]Man
Summary of the method: as §1

[21] = target: Man(a1-2)Man(a1-3)[Man(a1-2)Man(a1-6)]Man(a1-6)[Man(a1-2)Man(a1-2)Man(a1-3)]Man(b1-4)GlcNAc(b1-4)GlcNAc
Summary of the method: as §1

[22] = target: Man(a1-2)Man(a1-3)[Man(a1-6)]Man(a1-6)[Man(a1-2)Man(a1-3)]Man(b1-4)GlcNAc(b1-4)GlcNAc
Summary of the method: as §1

[23] = target: Man(a1-2)Man(a1-6)[Man(a1-3)]Man(a1-6)[Man(a1-2)Man(a1-2)Man(a1-3)]Man
Summary of the method: as §1

[24] = target: Man(a1-2)Man(a1-6)[Man(a1-3)]Man(a1-6)[Man(a1-2)Man(a1-2)Man(a1-3)]Man(b1-4)GlcNAc(b1-4)GlcNAc
Summary of the method: as §1

Man(a1-3)[Man(a1-6)]Man = target: Man(a1-3)[Man(a1-6)]Man
Summary of the method: as §1

B1: MCL (Mus musculus), Q9Z2H6 (protein)
chain: MWLEESQMKSKGTRHPQLIPCVFAVVSISFLSACFISTCLVTHHYFLRWTRGSVVKLSDYHTRVTCIREEPQPGATGGTWTCCPVSWRAFQSNCYFPLNDNQTWHESERNCSGMSSHLVTINTEAEQNFVTQLLDKRFSYFLGLADENVEGQWQWVDKTPFNPHTVFWEKGESNDFMEEDCVVLVHVHEKWVWNDFPCHFEVRRICKLPGITFNWKPSK
glycan array binding signal (z-score) (GlcA(b1-3)GlcNAc): 0.082
glycan array binding signal (z-score) (GlcA(b1-6)Gal): 0.661
glycan array binding signal (z-score) [1]: 0.647
glycan array binding signal (z-score) [2]: -0.566
glycan array binding signal (z-score) [3]: 0.546
glycan array binding signal (z-score) [4]: -0.705
glycan array binding signal (z-score) (GlcNAc(b1-3)Gal): -0.508
glycan array binding signal (z-score) [5]: -0.876
glycan array binding signal (z-score) (GlcNAc(b1-3)Gal(b1-4)Glc): 0.443
glycan array binding signal (z-score) [6]: -0.647
glycan array binding signal (z-score) [7]: -0.556
glycan array binding signal (z-score) (GlcNAc(b1-3)GalNAc): 0.005
glycan array binding signal (z-score) (GlcNAc(b1-3)Man): 0.723
glycan array binding signal (z-score) [8]: 0.299
glycan array binding signal (z-score) [9]: -0.357
glycan array binding signal (z-score) [10]: -0.202
glycan array binding signal (z-score) [11]: 0.578
glycan array binding signal (z-score) (GlcNAc(b1-4)GlcNAc): -0.412
glycan array binding signal (z-score) [12]: -0.353
glycan array binding signal (z-score) [13]: -0.065
glycan array binding signal (z-score) [14]: 0.386
glycan array binding signal (z-score) [15]: -0.214
glycan array binding signal (z-score) [16]: -0.735
glycan array binding signal (z-score) (GlcNAc(b1-6)GalNAc): -0.45
glycan array binding signal (z-score) (GlcNAc3Prop(b1-4)GlcNAc): -0.588
glycan array binding signal (z-score) (Kdn(a2-3)Gal(b1-3)GlcNAc): 0.241
glycan array binding signal (z-score) (Kdn(a2-3)Gal(b1-4)GlcNAc): 0.01
glycan array binding signal (z-score) [17]: 0.245
glycan array binding signal (z-score) [18]: 0.597
glycan array binding signal (z-score) (Man(a1-2)Man(a1-3)Man): -0.282
glycan array binding signal (z-score) [19]: -0.391
glycan array binding signal (z-score) [20]: -0.139
glycan array binding signal (z-score) [21]: -0.66
glycan array binding signal (z-score) [22]: 0.282
glycan array binding signal (z-score) [23]: -0.171
glycan array binding signal (z-score) [24]: 1.1
glycan array binding signal (z-score) (Man(a1-3)[Man(a1-6)]Man): 0.611
